Residue numbers refer to the chain shown, from its start. No constants are given. Whether binding was seen depends on the method and setting. In cells and extracts the contact can be indirect. Some entries that bind do so weakly or less than the wild type. For some assays here: Tags and fused reporters may be left off the sequences shown.

Sequences of proteins named here, by UniProt entry; tags and fusion partners are left off.
UniProt Q9D5V5: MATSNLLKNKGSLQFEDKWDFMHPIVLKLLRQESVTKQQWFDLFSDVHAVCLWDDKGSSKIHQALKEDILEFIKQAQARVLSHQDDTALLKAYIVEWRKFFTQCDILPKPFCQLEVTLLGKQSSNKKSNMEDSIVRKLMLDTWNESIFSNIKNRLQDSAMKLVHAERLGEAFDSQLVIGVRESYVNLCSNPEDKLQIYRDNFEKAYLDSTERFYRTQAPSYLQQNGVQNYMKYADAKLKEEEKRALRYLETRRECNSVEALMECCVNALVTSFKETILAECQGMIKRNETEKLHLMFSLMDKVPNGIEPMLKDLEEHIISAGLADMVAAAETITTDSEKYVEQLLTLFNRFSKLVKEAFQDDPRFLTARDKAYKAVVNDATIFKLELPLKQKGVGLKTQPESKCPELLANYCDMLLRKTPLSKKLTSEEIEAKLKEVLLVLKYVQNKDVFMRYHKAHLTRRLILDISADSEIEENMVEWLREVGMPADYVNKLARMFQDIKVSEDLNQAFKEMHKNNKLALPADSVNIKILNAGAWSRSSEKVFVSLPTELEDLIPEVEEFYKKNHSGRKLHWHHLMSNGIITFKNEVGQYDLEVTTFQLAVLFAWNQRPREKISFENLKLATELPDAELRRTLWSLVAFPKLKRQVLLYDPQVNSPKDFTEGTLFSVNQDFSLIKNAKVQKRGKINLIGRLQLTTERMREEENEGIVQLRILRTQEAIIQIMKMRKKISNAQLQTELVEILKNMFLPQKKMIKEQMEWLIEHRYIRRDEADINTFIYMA
UniProt Q93034: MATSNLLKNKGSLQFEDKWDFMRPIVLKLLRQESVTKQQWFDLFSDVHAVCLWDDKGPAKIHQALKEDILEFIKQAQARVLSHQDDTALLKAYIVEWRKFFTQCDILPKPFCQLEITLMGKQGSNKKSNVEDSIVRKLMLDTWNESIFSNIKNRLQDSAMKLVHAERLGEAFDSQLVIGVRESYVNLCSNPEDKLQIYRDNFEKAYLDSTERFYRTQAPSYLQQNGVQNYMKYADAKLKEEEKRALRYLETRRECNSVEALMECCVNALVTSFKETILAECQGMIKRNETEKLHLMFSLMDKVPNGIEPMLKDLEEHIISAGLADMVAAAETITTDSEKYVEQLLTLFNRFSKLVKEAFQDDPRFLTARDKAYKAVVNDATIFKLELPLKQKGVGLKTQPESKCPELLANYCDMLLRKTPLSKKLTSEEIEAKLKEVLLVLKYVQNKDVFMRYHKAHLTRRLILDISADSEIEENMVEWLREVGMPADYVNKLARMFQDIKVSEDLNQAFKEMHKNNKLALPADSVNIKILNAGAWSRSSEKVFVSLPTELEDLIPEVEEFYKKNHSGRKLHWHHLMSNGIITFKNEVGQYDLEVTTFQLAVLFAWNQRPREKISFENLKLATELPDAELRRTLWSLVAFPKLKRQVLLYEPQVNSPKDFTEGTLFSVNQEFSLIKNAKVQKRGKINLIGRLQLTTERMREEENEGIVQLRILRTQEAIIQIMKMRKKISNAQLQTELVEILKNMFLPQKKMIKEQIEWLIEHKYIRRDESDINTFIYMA

Test [1] has as its target T1, OGT (O-GlcNAc transferase), endogenous in mouse BMDMs (mouse (endogenous in BMDMs)) (UniProt Q8CGY8).
T1 sequence: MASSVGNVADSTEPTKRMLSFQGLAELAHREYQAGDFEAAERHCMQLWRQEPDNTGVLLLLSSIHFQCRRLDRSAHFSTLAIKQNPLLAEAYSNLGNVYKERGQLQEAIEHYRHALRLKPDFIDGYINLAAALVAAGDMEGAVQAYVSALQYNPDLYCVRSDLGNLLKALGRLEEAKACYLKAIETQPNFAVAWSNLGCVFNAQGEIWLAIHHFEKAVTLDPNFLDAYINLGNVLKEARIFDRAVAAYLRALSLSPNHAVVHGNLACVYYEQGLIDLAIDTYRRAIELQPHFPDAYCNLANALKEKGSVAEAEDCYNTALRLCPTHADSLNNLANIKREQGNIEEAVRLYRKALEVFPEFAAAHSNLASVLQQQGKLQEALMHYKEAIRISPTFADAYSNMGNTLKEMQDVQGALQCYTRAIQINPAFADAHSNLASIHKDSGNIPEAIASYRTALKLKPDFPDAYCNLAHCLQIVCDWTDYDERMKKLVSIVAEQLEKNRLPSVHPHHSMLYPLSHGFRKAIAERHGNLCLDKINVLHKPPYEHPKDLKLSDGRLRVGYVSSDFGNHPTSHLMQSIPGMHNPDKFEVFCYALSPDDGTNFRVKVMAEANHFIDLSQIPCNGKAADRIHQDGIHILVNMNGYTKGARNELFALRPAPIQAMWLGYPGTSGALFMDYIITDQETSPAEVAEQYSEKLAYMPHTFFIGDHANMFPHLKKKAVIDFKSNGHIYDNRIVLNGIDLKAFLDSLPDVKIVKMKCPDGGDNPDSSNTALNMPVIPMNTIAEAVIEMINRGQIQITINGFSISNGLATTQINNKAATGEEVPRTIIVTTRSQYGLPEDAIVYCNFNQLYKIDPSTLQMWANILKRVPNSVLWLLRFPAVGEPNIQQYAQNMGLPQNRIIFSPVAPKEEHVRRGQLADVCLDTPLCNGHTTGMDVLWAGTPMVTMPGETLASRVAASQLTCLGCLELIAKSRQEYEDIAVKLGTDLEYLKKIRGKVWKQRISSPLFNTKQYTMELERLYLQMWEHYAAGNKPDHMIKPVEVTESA
In words: co-IP; endogenous proteins in mouse BMDMs, with or without 20 μM TSLP for 4 h; RIPA lysate; antibodies and Protein G Agarose beads overnight at 4 °C; immunoblot. (In general: Immunoblotting shows a protein as a band on a membrane.)

Test [2] addresses T2, Flag-OGT (O-GlcNAc transferase) (human (cDNA from THP-1 cells)) (UniProt O15294).
T2 sequence: T1 sequence with E495D, P765A, S972N, I993V
In words: co-IP; HEK293T cells co-transfected with tagged plasmids (in some panels also Myc-SOCS3 or Myc-CUL5); lysed in cold RIPA buffer with protease inhibitors; antibodies and Protein G Agarose beads overnight at 4 °C; immunoblot.

For “CUL5 (Cullin5), endogenous in mouse BMDMs (from UniProt Q9D5V5 1-780)”, the binding entry in test [1] was “binds”.

For “Myc-CUL5 (Cullin5) (from UniProt Q93034 1-780)”, the binding entry in test [2] is on record as “binds”.
